Measurements from PMC7139404.
Results are given in words; binding and its absence hold for the method and conditions named. In cells and extracts the contact can be indirect. Some binding calls cover weakened binding; strength is not graded here. Tags and fused reporters may be left off the sequences shown.

T1: ELONGATED HYPOCOTYL 5 (HY5), HA-tagged (Arabidopsis thaliana) (UniProt O24646)
T1 sequence: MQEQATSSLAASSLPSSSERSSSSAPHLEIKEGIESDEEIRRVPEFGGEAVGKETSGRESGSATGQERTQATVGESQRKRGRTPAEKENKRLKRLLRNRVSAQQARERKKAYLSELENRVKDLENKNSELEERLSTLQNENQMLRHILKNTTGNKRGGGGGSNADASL

B1: HY5 HOMOLOG (HYH), FLAG-tagged (protein, UniProt Q8W191 1-149)
chain: MSLQRPNGNSSSSSSHKKHKTEESDEELLMVPDMEAAGSTCVLSSSADDGVNNPELDQTQNGVSTAKRRRGRNPVDKEYRSLKRLLRNRVSAQQARERKKVYVSDLESRANELQNNNDQLEEKISTLTNENTMLRKMLINTRPKTDDNH
B2: G-box binding factor 2 (GBF2), FLAG-tagged (protein, UniProt P42775 1-360)
chain: MGSNEEGNPTNNSDKPSQAAAPEQSNVHVYHHDWAAMQAYYGPRVGIPQYYNSNLAPGHAPPPYMWASPSPMMAPYGAPYPPFCPPGGVYAHPGVQMGSQPQGPVSQSASGVTTPLTIDAPANSAGNSDHGFMKKLKEFDGLAMSISNNKVGSAEHSSSEHRSSQSSENDGSSNGSDGNTTGGEQSRRKRRQQRSPSTGERPSSQNSLPLRGENEKPDVTMGTPVMPTAMSFQNSAGMNGVPQPWNEKEVKREKRKQSNRESARRSRLRKQAETEQLSVKVDALVAENMSLRSKLGQLNNESEKLRLENEAILDQLKAQATGKTENLISRVDKNNSVSGSKTVQHQLLNASPITDPVAAS
B3: G-box binding factor 3 (GBF3), FLAG-tagged (protein, UniProt P42776 1-382)
chain: MGNSSEEPKPPTKSDKPSSPPVDQTNVHVYPDWAAMQAYYGPRVAMPPYYNSAMAASGHPPPPYMWNPQHMMSPYGAPYAAVYPHGGGVYAHPGIPMGSLPQGQKDPPLTTPGTLLSIDTPTKSTGNTDNGLMKKLKEFDGLAMSLGNGNPENGADEHKRSRNSSETDGSTDGSDGNTTGADEPKLKRSREGTPTKDGKQLVQASSFHSVSPSSGDTGVKLIQGSGAILSPGVSANSNPFMSQSLAMVPPETWLQNERELKRERRKQSNRESARRSRLRKQAETEELARKVEALTAENMALRSELNQLNEKSDKLRGANATLLDKLKCSEPEKRVPANMLSRVKNSGAGDKNKNQGDNDSNSTSKLHQLLDTKPRAKAVAAG

Molecular target: T1, ELONGATED HYPOCOTYL 5 (HY5), HA-tagged (Arabidopsis thaliana)
Assay: co-IP; His-HY5-HA and His-bZIP-FLAG co-synthesized in wheat germ extract; crude extract pre-washed with Dynabeads protein G, then immunoprecipitated with anti-HA antibody on Dynabeads Protein G, 4 °C, 2 h; binding buffer 10 mM Tris-HCl pH7.5, 50 mM KCl, 5 mM MgCl2, 1 mM DTT, 0.05% Triton-X100, 2.5% glycerol; Western blot with anti-HA and anti-FLAG

Binder | binding
B1 | binds
B2 | binds
B3 | binds
